# PubChem BioAssay
# The shares of active, inactive and inconclusive entries below differ from those in the screen. The source made the active and inactive calls.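 The calls were made as follows: active = Fgf4 expression under 0.8 fold of control in both repeat measurements at one or both tested doses; inconclusive = under 0.8 fold in just a single repeat measurement; inactive = the rest.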
# Test: Fgf4 repression measured by qPCR – cell-based, mouse ESC, RT-qPCR, cherry-pick, esBAF inhibitor project, confirmation (AID 743177);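 also: Fgf4 transcript normalised to actin in duplex TaqMan qPCR; cells exposed to compound for 24 h before lysis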
# Settings: mouse ESC E14, Fgf4 mRNA qPCR fold change; at 33 µM; stronger effect = lower value
row,SMILES,Fgf4 expression fold change
1,CCn1cnc2cc(NCc3ccc(OC)cc3)ccc21,inconclusive: 0.779
2,Cc1cccc(-c2noc(Cc3ccc(Cl)cc3)n2)c1,inconclusive: 0.798
3,CCOC(=O)C1=C(CSc2nc(-c3ccccc3)ccc2C#N)OC(N)=C(C#N)C1c1cccnc1 (stereo not given),inconclusive: 0.715
4,CCCC1CCC(c2nc(-c3cccnc3)no2)CC1 (stereo not given),inconclusive: 0.773
5,Cc1cc2oc(=O)cc(CN(C)Cc3ccccc3F)c2cc1Cl,active: 0.653
6,CNC(=O)c1ccc(-c2ccccc2)s1,inconclusive: 0.661
7,O=C1N=C(N2CCCCC2)S/C1=C\c1ccccc1F,inconclusive: 0.78
8,CCc1c(C)sc(NC(=O)c2cccs2)c1C(N)=O,inactive: 1.11
9,C=CCNc1oc(-c2ccc(OC)cc2)nc1C#N,inactive: 0.925
10,Nc1cc(OCc2ccccc2)ccc1OCc1ccccc1,inconclusive: 0.685
11,N/C(=N\OC(=O)CC1CCCCC1)c1ccccn1,inconclusive: 0.794
12,CS(=O)(=O)c1ccccc1C(=O)Nc1ccc(-c2nc3ccccc3o2)cc1,inactive: 1.07
13,CCc1ccccc1NC(=O)c1cc(-c2cccc(O)c2)on1,inconclusive: 0.736
14,Cc1cc(Cl)nc(NC(=O)Nc2cccc(Cl)c2)n1,inactive: 1.08
15,CN(C)c1ccc(C(=O)c2ccccc2)cc1,inconclusive: 0.752
16,O=S(=O)(c1ccc2ccccc2c1)N1CCN(S(=O)(=O)c2c(F)cccc2F)CC1,inconclusive: 0.791
17,CN(Cc1cccnc1)C(=O)c1cc(COc2ccc3c(c2)CCCC3)on1,inactive: 0.947
18,O=C(CCCc1ccccn1)c1ccc(-c2ccccc2)cc1,inconclusive: 0.758
19,c1ccc2cc(C3CCCCC3)ncc2c1,inconclusive: 0.672
20,CNc1cncc(-c2cccc(OC)c2F)n1,inconclusive: 0.797

# A different layout for some results above.
row	SMILES	Fgf4 expression fold change
13	CCc1ccccc1NC(=O)c1cc(-c2cccc(O)c2)on1	inconclusive: 0.736
14	Cc1cc(Cl)nc(NC(=O)Nc2cccc(Cl)c2)n1	inactive: 1.08

# (continued)

row,SMILES,Fgf4 expression fold change
1,CC(=O)Nc1cc2c3c(cccc3c1)-c1ccccc1-2,inconclusive: 0.786
2,COC(=O)/C(=C1\Oc2ccc(C(C)(C)C)cc2S1)C(F)(F)F,inactive: 0.881
3,Cc1ccc(Nc2nc(Cl)nc(NC(C)(C)C)n2)cc1,inconclusive: 0.622
4,Cc1ccc(N=Nc2cc(C)ccc2O)c(C)c1,inconclusive: 0.76
5,O=C(N/N=C/c1cccs1)c1cccc2cc[nH]c12,inactive: 1.07
6,COc1ccc(/C=C/C(=O)Oc2cccc(/C=N/NC(=O)Cc3ccc(Br)cc3)c2)cc1,inconclusive: 0.777
7,Cc1cc(C)c2nc(-c3ccccc3)ccc2c1,inconclusive: 0.74
8,Cc1ccc(-c2nc3ccccc3[nH]2)cn1,inactive: 1.36
9,Cc1ccc(O)c(NC(=O)c2ccc3c(c2)C(=O)N(CC(C)C)C3=O)c1,inactive: 0.937
10,O=C(c1cc2ccccc2oc1=O)N(Cc1cccs1)C1CCS(=O)(=O)C1 (stereo not given),inconclusive: 0.682
11,CSc1ccccc1NC(=O)c1cc(C(C)C)on1,inconclusive: 0.775
12,COc1ccc(-c2cc(C(=O)Nc3ccc(NC(C)=O)cc3)[nH]n2)c(C)c1,inactive: 1.02
13,Cc1ccc2c3c([nH]c2c1C)-c1nonc1CC3,inconclusive: 0.684
14,CSc1nnc(NC(=O)C23CC4CC(CC(C4)C2)C3)s1,inconclusive: 0.714
15,c1ccc(Oc2cc(-c3ccccc3)ncn2)cc1,inconclusive: 0.752
16,COc1ccc(Cl)c(-c2cc(C(=O)Nc3ccccc3)[nH]n2)c1,inconclusive: 0.565
17,CCc1ccc2cc3c(cc2n1)C(=O)c1ccccc1-3,inconclusive: 0.636
18,N#Cc1ccc(C=NN2CCCCCC2)cc1,inconclusive: 0.724
19,COc1ccc2oc3cc(Cl)ccc3c(=O)c2c1,inconclusive: 0.579
20,COc1cc(C2Nc3cc(Cl)c(S(N)(=O)=O)cc3S(=O)(=O)N2)ccc1OCc1ccccc1 (stereo not given),inactive: 1.01
